Assay results from the supplement of paper PMC10331698.
± gives the standard deviation of the averaged measurements. Most entries show no effect beyond the scatter of the controls.

What was measured:
Assay in all cases: level (log10 ratio to DMSO vehicle control); higher = higher biomarker level / cell amount than vehicle control
[1] = compound: OCCCC(F)(F)C(F)(F)C(F)(F)C(F)(F)C(F)(F)C(F)(F)C(F)(F)C(F)(F)F [3-(Perfluorooctyl)propanol] (in DMSO); settings: 2200 nM
Experimental: (§1)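 BioMAP Diversity Plus panel of 12 human primary cell co-culture systems (3C, 4H, LPS, SAg, BT, BF4T, BE3C, CASM3C, HDF3CGF, KF3CT, MyoF, Mphg). Compounds were added 1 h before stimulation and left for 24 h (MyoF 48 h; BT 72 h for soluble read-outs or 6 d for IgG). Biomarkers were read by ELISA, cytotoxicity by SRB, PBMC viability and proliferation by Alamar Blue. Each well value was divided by the mean of 8 DMSO control wells on the same plate and log10 transformed; duplicate blinded samples were tested at 4 concentrations.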

[2] = compound: FC(F)(F)C(F)(F)C(F)(F)C(F)(F)CCI [1H,1H,2H,2H-Perfluorohexyl iodide] (in DMSO); settings: 2200 nM
Experimental: as §1

[3] = compound: O=C(O)CCC(F)(F)C(F)(F)C(F)(F)F [3:3 Fluorotelomer carboxylic acid] (in DMSO); settings: 2200 nM
Experimental: as §1

[4] = compound: O=C(O)C(F)(OC(F)(F)C(F)(F)C(F)(F)F)C(F)(F)F [Ammonium perfluoro-2-methyl-3-oxahexanoate] (in Water)
Experimental: as §1

[5] = compound: FC(F)(F)C(F)(F)CNCC(F)(F)C(F)(F)F [Bis(1H,1H-perfluoropropyl)amine] (in DMSO); settings: 2200 nM
Experimental: as §1

[6] = compound: C=C(C)C(=O)OCCC(F)(F)C(F)(F)C(F)(F)C(F)(F)C(F)(F)C(F)(F)F [6:2 Fluorotelomer methacrylate] (in DMSO); settings: 2200 nM
Experimental: as §1

[7] = compound: OCC(F)(F)C(F)(F)C(F)(F)C(F)(F)C(F)(F)C(F)(F)CO [1H,1H,8H,8H-Perfluorooctane-1,8-diol] (in DMSO); settings: 2200 nM
Experimental: as §1

[8] = compound: OCC(F)(F)C(F)(F)C(F)(F)C(F)F [1H,1H,5H-Perfluoropentanol] (in DMSO); settings: 2200 nM
Experimental: as §1

[9] = compound: OCC(F)(F)C(F)(F)C(F)(F)C(F)(F)C(F)(F)C(F)(F)F [6:1 Fluorotelomer alcohol] (in DMSO); settings: 2200 nM
Experimental: as §1

Perfluorohexanoic acid = compound: O=C(O)C(F)(F)C(F)(F)C(F)(F)C(F)(F)C(F)(F)F [Perfluorohexanoic acid] (in DMSO)
Experimental: as §1

[10] = compound: FC(F)(F)COC(OCC(F)(F)F)OCC(F)(F)F [tris(Trifluoroethoxy)methane] (in DMSO); settings: 2200 nM
Experimental: as §1

[11] = compound: O=C(O)C(F)(OC(F)(F)C(F)(OC(F)(F)C(F)(OC(F)(F)C(F)(F)C(F)(F)F)C(F)(F)F)C(F)(F)F)C(F)(F)F [Perfluoro-(2,5,8-trimethyl-3,6,9-trioxadodecanoic)acid] (in DMSO); settings: 370 nM
Experimental: as §1

[12] = compound: OCC(F)(F)OC(F)(F)C(F)(F)OC(F)(F)CO [1H,1H,8H,8H-Perfluoro-3,6-dioxaoctane-1,8-diol] (in DMSO); settings: 2200 nM
Experimental: as §1

[13] = compound: O=S(=O)(O)C(F)(F)C(F)(F)C(F)(F)C(F)(F)F [Perfluorobutanesulfonic acid] (in DMSO)
Experimental: as §1

[14] = compound: O=C(O)C(F)(F)C(F)(F)C(F)(F)OC(F)(C(F)(F)F)C(F)(F)F [Perfluoro-4-isopropoxybutanoic acid] (in DMSO); settings: 2200 nM
Experimental: as §1

Hexafluoroglutaric acid = compound: O=C(O)C(F)(F)C(F)(F)C(F)(F)C(=O)O [Hexafluoroglutaric acid] (in DMSO)
Experimental: as §1

[15] = compound: CNS(=O)(=O)C(F)(F)C(F)(F)C(F)(F)C(F)(F)C(F)(F)C(F)(F)C(F)(F)C(F)(F)F [N-Methylperfluorooctanesulfonamide] (in DMSO); settings: 2200 nM
Experimental: as §1

In the case of 3C:CXCL8/IL-8, the “level (log10)” value [1] is reported as 0.0155 ± 0.044, the “level (log10)” value [2] is reported as -0.007 ± 0.042 and the “level (log10)” value [3] is reported as -0.009 ± 0.016. The “level (log10)” value ([4]; 2200 nM) was 0.0575 ± 0.032, the “level (log10)” value ([4]; 6700 nM) was 0.038 ± 0.037 and the “level (log10)” value ([4]; 20000 nM) was 0.0745 ± 0.029. The “level (log10)” value ([4]; 60000 nM) was 0.131 ± 0.014, the “level (log10)” value [5] was 0.0405 ± 0.03 and the “level (log10)” value [6] was 0.0205 ± 0.035. For the same test system, the “level (log10)” value [7] was 0.032 ± 0.021, the “level (log10)” value [8] was 0.0455 ± 0.013 and the “level (log10)” value [9] was 0.003 ± 0.073. For the same test system, the “level (log10)” value (Perfluorohexanoic acid; 2200 nM) was -0.004 ± 0.013, the “level (log10)” value (Perfluorohexanoic acid; 6700 nM) was -0.006 ± 0.0042 and the “level (log10)” value (Perfluorohexanoic acid; 20000 nM) was 0.005 ± 0.0057. For the same test system, the “level (log10)” value (Perfluorohexanoic acid; 60000 nM) was 0.0635 ± 0.037, the “level (log10)” value [10] was 0.019 ± 0.025 and the “level (log10)” value [11] was 0.0085 ± 0.022. The “level (log10)” value [12] was 0.029 ± 0.013, the “level (log10)” value ([13]; 2200 nM) was -0.001 ± 0.0028 and the “level (log10)” value ([13]; 6700 nM) was 0.0045 ± 0.00071. The “level (log10)” value ([13]; 20000 nM) was 0.008 ± 0.021, the “level (log10)” value ([13]; 60000 nM) was 0.071 ± 0.04 and the “level (log10)” value [14] was 0.0185 ± 0.036. The “level (log10)” value (Hexafluoroglutaric acid; 2200 nM) was -0.0065 ± 0.029, the “level (log10)” value (Hexafluoroglutaric acid; 6700 nM) was -0.033 ± 0.0057 and the “level (log10)” value (Hexafluoroglutaric acid; 20000 nM) was -0.0185 ± 0.018. The “level (log10)” value (Hexafluoroglutaric acid; 60000 nM) was 0.0015 ± 0.044 and the “level (log10)” value [15] was 0.0335 ± 0.046.
For 3C:CXCL9/MIG, the “level (log10)” value [1] was 0.0005 ± 0.016, the “level (log10)” value [2] was 0.0095 ± 0.00071 and the “level (log10)” value [3] was -0.008 ± 0.011. For the same test system, the “level (log10)” value ([4]; 2200 nM) was 0 ± 0.0071, the “level (log10)” value ([4]; 6700 nM) was -0.0085 ± 0.011 and the “level (log10)” value ([4]; 20000 nM) was -0.003 ± 0.0099. The “level (log10)” value ([4]; 60000 nM) was -0.004, the “level (log10)” value [5] was 0.0005 ± 0.0021 and the “level (log10)” value [6] was 0.0015 ± 0.0035. The “level (log10)” value [7] was 0.013 ± 0.0014, the “level (log10)” value [8] was 0.0065 ± 0.0064 and the “level (log10)” value [9] was 0.0015 ± 0.021. The “level (log10)” value (Perfluorohexanoic acid; 2200 nM) was -0.006 ± 0.018, the “level (log10)” value (Perfluorohexanoic acid; 6700 nM) was -0.0065 ± 0.012 and the “level (log10)” value (Perfluorohexanoic acid; 20000 nM) was -0.0045 ± 0.00071. The “level (log10)” value (Perfluorohexanoic acid; 60000 nM) was 0.0025 ± 0.012, the “level (log10)” value [10] was -0.0065 ± 0.0078 and the “level (log10)” value [11] was 0.003 ± 0.018. The “level (log10)” value [12] was -0.0035 ± 0.012, the “level (log10)” value ([13]; 2200 nM) was 0.002 ± 0.0028 and the “level (log10)” value ([13]; 6700 nM) was 0.009 ± 0.016. For the same test system, the “level (log10)” value ([13]; 20000 nM) was 0.009 ± 0.017, the “level (log10)” value ([13]; 60000 nM) was 0.0175 ± 0.0021 and the “level (log10)” value [14] was 0.006. For the same test system, the “level (log10)” value (Hexafluoroglutaric acid; 2200 nM) was 0.0035 ± 0.0064, the “level (log10)” value (Hexafluoroglutaric acid; 6700 nM) was -0.014 ± 0.0085 and the “level (log10)” value (Hexafluoroglutaric acid; 20000 nM) was -0.005 ± 0.0042. The “level (log10)” value (Hexafluoroglutaric acid; 60000 nM) was -0.0075 ± 0.0035 and the “level (log10)” value [15] was 0.0035 ± 0.013.
In the case of 3C:HLA-DR, the “level (log10)” value [1] is reported as 0.0025 ± 0.035, the “level (log10)” value [2] is reported as 0.0035 ± 0.0064 and the “level (log10)” value [3] is reported as -0.011 ± 0.011. For the same test system, the “level (log10)” value ([4]; 2200 nM) was 0.007 ± 0.0028, the “level (log10)” value ([4]; 6700 nM) was 0.0075 ± 0.011 and the “level (log10)” value ([4]; 20000 nM) was 0.0175 ± 0.028. For the same test system, the “level (log10)” value ([4]; 60000 nM) was 0.016 ± 0.0014, the “level (log10)” value [5] was 0.0135 ± 0.0064 and the “level (log10)” value [6] was 0.005 ± 0.0014. The “level (log10)” value [7] was -0.008 ± 0.023, the “level (log10)” value [8] was 0.013 ± 0.0042 and the “level (log10)” value [9] was 0.0055 ± 0.016. For the same test system, the “level (log10)” value (Perfluorohexanoic acid; 2200 nM) was 0.009 ± 0.021, the “level (log10)” value (Perfluorohexanoic acid; 6700 nM) was 0.002 ± 0.0042 and the “level (log10)” value (Perfluorohexanoic acid; 20000 nM) was 0.004 ± 0.014. The “level (log10)” value (Perfluorohexanoic acid; 60000 nM) was -0.002 ± 0.0085, the “level (log10)” value [10] was -0.005 ± 0.025 and the “level (log10)” value [11] was 0.009 ± 0.014. For the same test system, the “level (log10)” value [12] was -0.0025 ± 0.036, the “level (log10)” value ([13]; 2200 nM) was -0.0085 ± 0.0035 and the “level (log10)” value ([13]; 6700 nM) was -0.0015 ± 0.015. The “level (log10)” value ([13]; 20000 nM) was -0.007 ± 0.0057, the “level (log10)” value ([13]; 60000 nM) was -0.006 ± 0.013 and the “level (log10)” value [14] was 0.014 ± 0.025. For the same test system, the “level (log10)” value (Hexafluoroglutaric acid; 2200 nM) was 0.035 ± 0.068, the “level (log10)” value (Hexafluoroglutaric acid; 6700 nM) was 0.0225 ± 0.035 and the “level (log10)” value (Hexafluoroglutaric acid; 20000 nM) was 0.0315 ± 0.047. For the same test system, the “level (log10)” value (Hexafluoroglutaric acid; 60000 nM) was 0.038 ± 0.042 and the “level (log10)” value [15] was 0.0005 ± 0.023.
For 3C:Proliferation, the “level (log10)” value [1] was -0.02 ± 0.057, the “level (log10)” value [2] was -0.0245 ± 0.019 and the “level (log10)” value [3] was 0.0015 ± 0.053. The “level (log10)” value ([4]; 2200 nM) was -0.132 ± 0.051, the “level (log10)” value ([4]; 6700 nM) was -0.0765 ± 0.015 and the “level (log10)” value ([4]; 20000 nM) was -0.136 ± 0.031. The “level (log10)” value ([4]; 60000 nM) was -0.149 ± 0.023, the “level (log10)” value [5] was -0.0485 ± 0.06 and the “level (log10)” value [6] was -0.016 ± 0.052. For the same test system, the “level (log10)” value [7] was -0.073 ± 0.041, the “level (log10)” value [8] was -0.0475 ± 0.011 and the “level (log10)” value [9] was -0.007 ± 0.0071. The “level (log10)” value (Perfluorohexanoic acid; 2200 nM) was -0.001 ± 0.016, the “level (log10)” value (Perfluorohexanoic acid; 6700 nM) was -0.0055 ± 0.012 and the “level (log10)” value (Perfluorohexanoic acid; 20000 nM) was -0.006 ± 0.0028. For the same test system, the “level (log10)” value (Perfluorohexanoic acid; 60000 nM) was -0.01 ± 0.04, the “level (log10)” value [10] was 0.001 ± 0.041 and the “level (log10)” value [11] was 0.0145 ± 0.005. For the same test system, the “level (log10)” value [12] was -0.061 ± 0.034, the “level (log10)” value ([13]; 2200 nM) was -0.0135 ± 0.093 and the “level (log10)” value ([13]; 6700 nM) was -0.002 ± 0.0014. For the same test system, the “level (log10)” value ([13]; 20000 nM) was 0.017 ± 0.031, the “level (log10)” value ([13]; 60000 nM) was -0.0525 ± 0.023 and the “level (log10)” value [14] was -0.0505 ± 0.053. For the same test system, the “level (log10)” value (Hexafluoroglutaric acid; 2200 nM) was -0.0355 ± 0.066, the “level (log10)” value (Hexafluoroglutaric acid; 6700 nM) was -0.0055 ± 0.0064 and the “level (log10)” value (Hexafluoroglutaric acid; 20000 nM) was -0.009 ± 0.068. The “level (log10)” value (Hexafluoroglutaric acid; 60000 nM) was -0.0155 ± 0.054 and the “level (log10)” value [15] was -0.031 ± 0.054.
